Assay results as given in PMC11633749, “Identification of the Wnt signal peptide that directs secretion on extracellular vesicles” (Science Advances, 2024).

Amino acid sequences for entries named in this document (tags omitted).
UniProt P53621: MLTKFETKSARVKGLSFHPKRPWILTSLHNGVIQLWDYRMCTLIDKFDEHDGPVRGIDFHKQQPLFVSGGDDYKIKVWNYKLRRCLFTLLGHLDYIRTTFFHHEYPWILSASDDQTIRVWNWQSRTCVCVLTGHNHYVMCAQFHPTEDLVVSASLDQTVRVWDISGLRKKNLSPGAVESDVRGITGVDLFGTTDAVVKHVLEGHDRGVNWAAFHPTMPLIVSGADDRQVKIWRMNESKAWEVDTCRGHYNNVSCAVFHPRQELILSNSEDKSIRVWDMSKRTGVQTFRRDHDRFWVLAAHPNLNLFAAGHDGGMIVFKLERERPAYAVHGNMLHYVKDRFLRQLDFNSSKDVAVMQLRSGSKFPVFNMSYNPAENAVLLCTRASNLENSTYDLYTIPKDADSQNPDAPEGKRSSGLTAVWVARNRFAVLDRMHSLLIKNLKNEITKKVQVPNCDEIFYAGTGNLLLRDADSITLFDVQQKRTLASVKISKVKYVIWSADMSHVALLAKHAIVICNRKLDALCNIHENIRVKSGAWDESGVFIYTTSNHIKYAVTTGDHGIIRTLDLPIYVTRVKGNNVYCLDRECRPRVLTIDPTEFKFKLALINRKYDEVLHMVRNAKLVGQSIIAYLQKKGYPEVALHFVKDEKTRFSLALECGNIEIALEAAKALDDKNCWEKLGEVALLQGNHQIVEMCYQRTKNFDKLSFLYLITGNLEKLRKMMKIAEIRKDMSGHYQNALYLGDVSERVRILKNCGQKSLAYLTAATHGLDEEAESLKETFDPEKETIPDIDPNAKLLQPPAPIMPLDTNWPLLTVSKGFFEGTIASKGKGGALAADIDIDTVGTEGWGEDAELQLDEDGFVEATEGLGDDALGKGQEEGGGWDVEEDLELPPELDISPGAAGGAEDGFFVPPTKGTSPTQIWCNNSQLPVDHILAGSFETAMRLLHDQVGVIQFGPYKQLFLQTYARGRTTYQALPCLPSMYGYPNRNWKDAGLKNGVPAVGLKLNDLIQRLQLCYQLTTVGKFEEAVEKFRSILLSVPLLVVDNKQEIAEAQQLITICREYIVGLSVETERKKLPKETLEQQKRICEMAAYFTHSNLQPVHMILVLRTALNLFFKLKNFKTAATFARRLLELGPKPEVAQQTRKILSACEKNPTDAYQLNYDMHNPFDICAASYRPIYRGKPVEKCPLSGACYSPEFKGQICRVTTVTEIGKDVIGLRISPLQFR

T1: full-length Wnt7a-HA (Wnt7a-FL) (human) (UniProt O00755)
T1 sequence: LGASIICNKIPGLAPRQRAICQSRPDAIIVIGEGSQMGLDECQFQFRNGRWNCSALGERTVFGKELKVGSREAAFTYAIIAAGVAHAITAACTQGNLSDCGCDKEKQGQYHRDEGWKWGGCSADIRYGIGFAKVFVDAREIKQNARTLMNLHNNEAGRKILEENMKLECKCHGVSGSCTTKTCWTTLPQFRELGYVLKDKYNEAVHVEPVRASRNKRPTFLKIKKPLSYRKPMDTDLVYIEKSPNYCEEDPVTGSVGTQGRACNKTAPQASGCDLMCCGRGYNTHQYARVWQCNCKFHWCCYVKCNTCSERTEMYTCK

T2: myc-tagged Wnt7a-BirA (UniProt O00755)
T2 sequence: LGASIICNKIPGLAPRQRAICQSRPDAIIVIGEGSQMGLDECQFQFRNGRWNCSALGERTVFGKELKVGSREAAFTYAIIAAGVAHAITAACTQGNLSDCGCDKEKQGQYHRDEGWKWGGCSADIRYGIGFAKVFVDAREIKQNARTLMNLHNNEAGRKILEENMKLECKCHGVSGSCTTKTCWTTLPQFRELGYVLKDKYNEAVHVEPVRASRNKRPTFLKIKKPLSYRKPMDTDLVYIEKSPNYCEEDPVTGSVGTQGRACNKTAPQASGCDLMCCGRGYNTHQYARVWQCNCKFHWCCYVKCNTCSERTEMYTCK

T3: myc-tagged EBP-BirA (human)
T3 sequence: PVRASRNKRPTFLKIKKP

B1: COPB2 (coatomer protein), mouse (protein, UniProt O55029 1-905)
chain: MPLRLDIKRKLTARSDRVKSVDLHPTEPWMLASLYNGSVCVWNHETQTLVKTFEVCDLPVRAAKFVARKNWVVTGADDMQIRVFNYNTLERVHMFEAHSDYIRCIAVHPTQPFILTSSDDMLIKLWDWDKKWSCSQVFEGHTHYVMQIVINPKDNNQFASASLDRTIKVWQLGSSSPNFTLEGHEKGVNCIDYYSGGDKPYLISGADDRLVKIWDYQNKTCVQTLEGHAQNVSCASFHPELPIIITGSEDGTVRIWHSSTYRLESTLNYGMERVWCVASLRGSNNVALGYDEGSIIVKLGREEPAMSMDANGKIIWAKHSEVQQANLKAMGDTEIKDGERLPLAVKDMGSCEIYPQTIQHNPNGRFVVVCGDGEYIIYTAMALRNKSFGSAQEFAWAHDSSEYAIRESNSIVKIFKNFKEKKSFKPDFGAESIYGGFLLGVRSVNGLAFYDWENTELIRRIEIQPKHIFWSDSGELVCIATEESFFILKYLSEKVLAAQETHEGVTEDGIEDAFEVLGEIQEIVKTGLWVGDCFIYTSSVNRLNYYVGGEIVTIAHLDRTMYLLGYIPKDNRLYLGDKELNIVSYSLLVSVLEYQTAVMRRDFSMADKVLPTIPKEQRTRVAHFLEKQGFKQQALTVSTDPEHRFELALQLGELKIAYQLAVEAESEQKWKQLAELAISKCQFSLAQECLHHAQDYGGLLLLATASGNASMVNKLAEGAERDGKNNVAFMSYFLQGKLDACLELLIRTGRLPEAAFLARTYLPSQVSRVVKLWRENLSKVNQKAAESLADPTEYENLFPGLKEAFVVEEWVKETHADLWPAKQYPLVTPNEERNVMEEAKGFQPSRPTAQQEPDGKPASSPVIMASQTTHKEEKSLLELEVDLDNLELEDIDTTDINLDEDILDD
B2: COPB2 (coatomer protein), human (protein, UniProt P35606 1-906)
chain: MPLRLDIKRKLTARSDRVKSVDLHPTEPWMLASLYNGSVCVWNHETQTLVKTFEVCDLPVRAAKFVARKNWVVTGADDMQIRVFNYNTLERVHMFEAHSDYIRCIAVHPTQPFILTSSDDMLIKLWDWDKKWSCSQVFEGHTHYVMQIVINPKDNNQFASASLDRTIKVWQLGSSSPNFTLEGHEKGVNCIDYYSGGDKPYLISGADDRLVKIWDYQNKTCVQTLEGHAQNVSCASFHPELPIIITGSEDGTVRIWHSSTYRLESTLNYGMERVWCVASLRGSNNVALGYDEGSIIVKLGREEPAMSMDANGKIIWAKHSEVQQANLKAMGDAEIKDGERLPLAVKDMGSCEIYPQTIQHNPNGRFVVVCGDGEYIIYTAMALRNKSFGSAQEFAWAHDSSEYAIRESNSIVKIFKNFKEKKSFKPDFGAESIYGGFLLGVRSVNGLAFYDWDNTELIRRIEIQPKHIFWSDSGELVCIATEESFFILKYLSEKVLAAQETHEGVTEDGIEDAFEVLGEIQEIVKTGLWVGDCFIYTSSVNRLNYYVGGEIVTIAHLDRTMYLLGYIPKDNRLYLGDKELNIISYSLLVSVLEYQTAVMRRDFSMADKVLPTIPKEQRTRVAHFLEKQGFKQQALTVSTDPEHRFELALQLGELKIAYQLAVEAESEQKWKQLAELAISKCQFGLAQECLHHAQDYGGLLLLATASGNANMVNKLAEGAERDGKNNVAFMSYFLQGKVDACLELLIRTGRLPEAAFLARTYLPSQVSRVVKLWRENLSKVNQKAAESLADPTEYENLFPGLKEAFVVEEWVKETHADLWPAKQYPLVTPNEERNVMEEGKDFQPSRSTAQQELDGKPASPTPVIVASHTANKEEKSLLELEVDLDNLELEDIDTTDINLDEDILDD
B3: WLS (protein, UniProt Q6DID7 1-541)
chain: MAGAIIENMSTKKLCIVGGILLVFQIVAFLVGGLIAPAPTTAVPYTAIKCVDVRKNHHKTRWLAPWGPNKCDKIRDIEEAIPREIEANDIVFSVHIPLPSMEMSPWFQFMLFILQLDIAFKLNNQIRENAEISMDVSLGYRDDMFSEWTEMAHERVPRKLKCTFTSPKTPEHEGRYYNCDVLPFMEIGSVAHKYYLLNIRLPVNEKKKINVGIGEIKDIRLVGIHQNGGFTKVWFAMKTFLTPSIFIIMVWYWRRITMMSRPPVLLEKVIFALGISMTFINIPVEWFSIGFDWTWMLLFGDIRQGIFYAMLLSFWIIFCGEHMMDQHERNHIAGYWKQVGPIAVGSFCLFIFDMCERGVQLTNPFYSIWTTDVGTELAMAFIIVAGICLCLYFLFLCFMVFQVFRNISGKQSSLPAMSKVRRLHYEGLIFRFKFLMLITLACAAMTVIFFIVSQVSEGHWKWGGVTVQVSSAFFTGIYGMWNLYVFALMFLYAPSHKNYGEDQSNGDLGVHSGEELQLTTTITHVDGPTEIYKLTRKEAQE
B4: Reck (protein, UniProt Q9Z0J1 23-942)
chain: EVTGGLAPGSAGAVCCNHSKDNQMCRDVCEQIFSSKSESRLKHLLQRAPDYCPETMVEIWSCMNSSLPGVFKKSDGWVGLGCCELAIGLECRQACKQASSKNDISKVCRKEYENALFSCISRNEMGSVCCSYAGHHTNCREFCQAIFRTDSSPGPSQIKAVENYCASISPQLIHCVNNYTQSYPMRNPTDSLYCCDRAEDHACQNACKRILMSKKTEMEIVDGLIEGCKTQPLPQDPLWQCFLESSQSVHPGVTVHPPPSTGLDGAKLHCCSKANTSTCRELCTKLYSMSWGNTQSWQEFDRICEYNPVEVSMLTCLADVREPCQLGCTNLTYCTNFNNRPTELFRSCTAQSDQGAMSDMKLWEKGSIKMPFISIPVLDIKTCQPEMWKAVACSLQIKPCHSKSRGSIICKSDCVEILKKCGDQNKFPEEHTAESICEFLSPADDLESCIPLDTYLRPSALGNIIEEVTHPCNPNPCPANELCEVNRKGCPSADPCLPYSCVQGCKLGEASDFIVRQGTLIQVPSSAGEVGCYKICSCGQSGLLENCMEMHCIDLQKSCIVGGKRKSHGTSFTIDCNVCSCFAGNLVCSTRLCLSEHSSDDDRRTFTGLPCNCADQFVPVCAQNGRTYPSACIARCVGLQDHQFEFGPCISKNPCNPNLCPKSQRCVPKPQVCLTTFDKFGCSQYECVPRQLTCDQARDPVCDTDHMEHSNLCTLYQRGKSLSYRGPCQPFCRAKEPVCGHNGETYSSVCAAYSDRVAVDYYGPCQAVGVLSEYSAVAECAAVKCPSLSAIGCKPIIPPGACCPLCAGMLRVLFDKEKLDTIAKVTSKKPITVVEILQKVRMHVSVPQCDVFGYLSIESEIVILIIPVDHYPKALQIEACNKEAEKIESLINSDSPTLASHVPLSALIISQVQVSSSLPS

Assays:
[1] = target: T1, full-length Wnt7a-HA (Wnt7a-FL) (human); test: affinity purification with mass spectrometry; anti-HA immunoprecipitates from lysed EVs of Wnt7a-HA-expressing HEK293T cells; mass spectrometry
myc-tagged Wnt7a-BirA = target: T2, myc-tagged Wnt7a-BirA; test: proximity labelling; BioID in stable mouse primary myoblasts expressing BioID2 fusions; 50 μM biotin 18 hours; streptavidin beads; mass spectrometry; enrichment against BirA alone
[2] = target: T3, myc-tagged EBP-BirA (human); test: as above

binding [1]	binding (myc-tagged Wnt7a-BirA)	binding [2]	Molecule
binds	–	–	COPA (coatomer protein), human (from UniProt P53621 1-1224)
–	binds	binds	B1
binds	–	–	B2
–	no binding	–	B3
–	no binding	no binding	B4

These are yes or no findings as the source states them, for the method shown. In cells and extracts the contact can be indirect. Here binding means that the protein was enriched with, or labelled near, the bait; the list need not be complete. For some of these results: A no says only that the protein was not detected with the bait. Tags and fused reporters may be left off the sequences shown.
